“And” between values parts separate entries of the source, which are not always exact repeats. Equal values may be shown once. ± gives the standard deviation of the averaged measurements. The list shows a part of the results. Some well-known active drugs show little effect in this data set, so a weak value is uncertain.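 The cells are human mesenchymal stem cells that lack the Werner syndrome gene and age prematurely. Growth was tracked by automated live-cell imaging in three biological repeats, and the twenty drugs that most raised growth over vehicle were taken forward, with no fixed cutoff stated.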
Test system: Werner syndrome hMSCs (WRN-/-)
Assay: relative cell density (fold change vs vehicle control); higher = more proliferation (geroprotective)
Conditions: concentration (umol/L): 1, 6 days

Structure (SMILES)	relative cell density (vehicle: Water)	relative cell density (vehicle: DMSO)
O=C(O)c1cn(-c2ccc(F)cc2)c2cc(N3CCNCC3)c(F)cc2c1=O	1.05	
C[C@@H]1C[C@H]2[C@@H]3C[C@H](F)C4=CC(=O)C=C[C@]4(C)[C@@]3(F)[C@@H](O)C[C@]2(C)[C@@]1(O)C(=O)CO		0.845
O=C(NC[C@H]1CN(c2ccc(N3CCOCC3=O)cc2)C(=O)O1)c1ccc(Cl)s1		0.975
Cc1nnc(C(=O)NC(C)(C)c2nc(C(=O)NCc3ccc(F)cc3)c(O)c(=O)n2C)o1		1.11
CCOC(=O)[C@@H](N)Cc1ccc(-c2cc(O[C@H](c3ccc(Cl)cc3-n3ccc(C)n3)C(F)(F)F)nc(N)n2)cc1		0.952
COc1c2occc2cc2ccc(=O)oc12		1.08
N=C(NCCCCCCNC(=N)NC(=N)Nc1ccc(Cl)cc1)NC(=N)Nc1ccc(Cl)cc1		1.11
CN1CCN(C2=Nc3ccccc3Oc3ccc(Cl)cc32)CC1		1.29
Clc1ccc(CCC(Cn2ccnc2)Sc2c(Cl)cccc2Cl)cc1 (centres undefined)		1.21
N#Cc1ccc(C(c2ccc(C#N)cc2)n2cncn2)cc1		0.942
C[N+]1(C)CCC(OC(=O)C(O)(c2ccccc2)C2CCCC2)C1 (centres undefined)		1.49
NC(=O)CCC(N)C(=O)O (centres undefined)	0.939	
C#Cc1cccc(Nc2ncnc3cc(OC)c(OCCCCCCC(=O)NO)cc23)c1		0.496
CC(=O)S[C@@H]1CC2=CC(=O)CC[C@]2(C)[C@H]2CC[C@@]3(C)[C@@H](CC[C@@]34CCC(=O)O4)[C@H]12		0.874
CCCc1cc(C(N)=S)ccn1		1.01
CO[C@H]1/C=C/O[C@@]2(C)Oc3c(C)c(O)c4c(O)c(c(/C=N/N5CCN(C6CCCC6)CC5)c(O)c4c3C2=O)NC(=O)/C(C)=C\C=C\[C@H](C)[C@H](O)[C@@H](C)[C@@H](O)[C@@H](C)[C@H](OC(C)=O)[C@@H]1C		1
N=C(N)NC(=N)NCCc1ccccc1		1.09
CN1CCC(=C2c3ccccc3C=Cc3ccccc32)CC1		0.96 and 1.29
CC(C)Oc1ccc(-c2nc(-c3cccc4c3CC[C@@H]4NCCO)no2)cc1C#N		1.02
CC[C@H]1[C@@H](O)[C@@H]2[C@H](CC[C@]3(C)[C@@H]([C@H](C)CCC(=O)O)CC[C@@H]23)[C@@]2(C)CC[C@@H](O)C[C@@H]12		0.969
CNC1CCCN(c2c(F)cc3c(=O)c(C(=O)O)cn(C4CC4)c3c2OC)C1 (centres undefined)		1.16
C[C@H]1O[C@H](O[C@H]2[C@H](O)[C@@H](O)[C@@H](O[C@H]3[C@H](O)[C@@H](O)C(O)O[C@@H]3CO)O[C@@H]2CO)[C@H](O)[C@@H](O)[C@@H]1N[C@H]1C=C(CO)[C@@H](O)[C@H](O)[C@H]1O (some centres undefined)		1.04
Cc1cn[nH]c1		1.06
OCCN1CCN(CC/C=C2/c3ccccc3Sc3ccc(C(F)(F)F)cc32)CC1		1.03

Structure (SMILES)	relative cell density (vehicle: Water)	relative cell density (vehicle: DMSO)
C[C@@H](O)[C@H]1C(=O)N2C(C(=O)O)=C([C@H]3CCCO3)S[C@H]12		0.96
N=C1CCCN1Cc1[nH]c(=O)[nH]c(=O)c1Cl		0.974
Nc1[nH]cnc2ncnc1-2		1.14
C[C@@H](NCCCc1cccc(C(F)(F)F)c1)c1cccc2ccccc12		0.911
CC(=O)Nc1cccc(-n2c(=O)n(C3CC3)c(=O)c3c(Nc4ccc(I)cc4F)n(C)c(=O)c(C)c32)c1		0.45
NCCc1c[nH]cn1	1.46	1.31 and 1.44
OC(Cn1cncn1)(Cn1cncn1)c1ccc(F)cc1F		1.05
CC(C)c1c(C(=O)Nc2ccccc2)c(-c2ccccc2)c(-c2ccc(F)cc2)n1CC[C@@H](O)C[C@@H](O)CC(=O)O		0.307
Cc1ncc(C[n+]2csc(CCO)c2C)c(N)n1	1.05	
CCN[C@H]1CN(CCCOC)S(=O)(=O)c2sc(S(N)(=O)=O)cc21		1.46
NS(=O)(=O)c1cc(C2(O)NC(=O)c3ccccc32)ccc1Cl (centres undefined)		1.4
O=C(O)CCCCCCCC(=O)O		1.31
CC(=O)OCC(=O)[C@@]1(O)CC[C@H]2[C@@H]3CCC4=CC(=O)CC[C@]4(C)[C@@]3(F)[C@@H](O)C[C@@]21C		1.09
FC(F)(F)C(Cl)Br (centres undefined)		0.925
Cc1ccc(C(=O)c2ccc(CC(=O)O)n2C)cc1		0.742
O=C(O)c1cc(-c2ccccc2)nc2ccccc12		0.675
CC(=O)O[C@]1(C(C)=O)CC[C@H]2[C@@H]3C[C@H](C)C4=CC(=O)CC[C@]4(C)[C@H]3CC[C@@]21C		1.09
C[C@H]1CNCCCN1S(=O)(=O)c1cccc2cncc(F)c12		0.95
COc1cc2c(Oc3ccc4[nH]c(C)cc4c3F)ncnc2cc1OCCCN1CCCC1		0.464
CN(C)c1nc(N(C)C)nc(N(C)C)n1		0.846
CCn1c(=O)c(-c2cc[nH]n2)cc2c(C)nc(N)nc21		0.753
CNS(=O)(=O)C[C@H]1CC[C@H](N(C)c2[nH]cnc3nccc2-3)CC1		1.09
COc1ccccc1OCC(O)CN1CCN(CC(=O)Nc2c(C)cccc2C)CC1 (centres undefined)		1.01 and 1.34
COc1cc([C@@H]2c3cc4c(cc3[C@@H](O[C@@H]3O[C@@H]5CO[C@@H](C)O[C@H]5[C@H](O)[C@H]3O)[C@H]3COC(=O)[C@H]23)OCO4)cc(OC)c1O		0.258

Structure (SMILES)	relative cell density (vehicle: Water)	relative cell density (vehicle: DMSO)
NC(=O)C(c1ccccc1)(c1ccccc1)[C@@H]1CCN(CCc2ccc3c(c2)CCO3)C1		1.15
CCCNCC(O)COc1ccccc1C(=O)CCc1ccccc1 (centres undefined)		1.26
Cn1c(=O)cc(N2CCCC(N)C2)n(Cc2ccccc2C#N)c1=O (centres undefined)		1.05
C[C@H]1C[C@@H]2[C@H]([C@@H](O)C[C@@]3(C)[C@H]2CC[C@]3(O)C(=O)CO)[C@@]2(C)C=CC(=O)C=C12		0.84
COc1ccc(C2CNC(=O)C2)cc1OC1CCCC1 (centres undefined)		1.34 and 1.19
O=C1OCCN1/N=C/c1ccc([N+](=O)[O-])o1		1.16
CCOC(=O)[C@H](CCc1ccccc1)N[C@H]1CS[C@H](c2cccs2)CN(CC(=O)O)C1=O		0.869
c1ccc([C@H]2CN3CCSC3=N2)cc1	1.01 ± 0.15	
CCC(=O)O[C@]1(C(=O)CCl)[C@@H](C)C[C@H]2[C@@H]3CCC4=CC(=O)C=C[C@]4(C)[C@@]3(F)[C@@H](O)C[C@@]21C		1.09
O=S(=O)(O)c1cc(O)ccc1O		0.638
Cc1c(O)c(=O)ccn1C	1.4	
NNc1nncc2ccccc12	0.786	
CC(=O)OCC(CCn1cnc2cnc(N)nc21)COC(C)=O		1.39
C[C@H](CCC(=O)O)[C@H]1CC[C@H]2[C@@H]3[C@H](O)C[C@@H]4C[C@H](O)CC[C@]4(C)[C@H]3CC[C@]12C		1.29
Nc1cc(C(Cl)=C(Cl)Cl)c(S(N)(=O)=O)cc1S(N)(=O)=O		1.19
CC[C@H](C)C(=O)O[C@H]1CCC=C2C=C[C@H](C)[C@H](CC[C@@H]3C[C@@H](O)CC(=O)O3)[C@H]21		1.02
C1CNCCN1		1.13
O=c1oc2ccccc2c(O)c1Cc1c(O)c2ccccc2oc1=O		1.17
CC(=O)[C@]1(O)Cc2c(O)c3c(c(O)c2[C@@H](O[C@H]2C[C@H](N)[C@H](O)[C@H](C)O2)C1)C(=O)c1ccccc1C3=O		0.0509
CC(/C=C1\SC(=S)N(CC(=O)O)C1=O)=C\c1ccccc1	0.833	
CN1CCN(CCCN2c3ccccc3Sc3ccc(Cl)cc32)CC1		1.27
Cc1nc(=O)c2cc(CN(C)c3ccc(C(=O)N[C@@H](CCC(=O)O)C(=O)O)s3)ccc2[nH]1		1.4
COCC[n+]1c2c(n(Cc3cnccn3)c1C)C(=O)c1ccccc1C2=O		0.231
COc1ccc([C@]2(C#N)CC[C@@H](C(=O)O)CC2)cc1OC1CCCC1		1.32

Structure (SMILES)	relative cell density (vehicle: Water)	relative cell density (vehicle: DMSO)
O=c1[nH]c(=O)n(C2CCCO2)cc1F (centres undefined)		0.966
C[C@@H]1CCN(C(=O)CC#N)C[C@@H]1N(C)c1ncnc2[nH]ccc12		1.02
CO[C@@]12[C@H](COC(N)=O)C3=C(C(=O)C(C)=C(N)C3=O)N1C[C@@H]1N[C@@H]12		0.605
CC1=Nc2ccc(Cl)cc2S(=O)(=O)N1		1.46
CCCN(CCC)C(=O)C1=Cc2ccc(-c3ccc(C(=O)N4CCCC4)cc3)cc2N=C(N)C1		1.36
O=C(NCCO[N+](=O)[O-])c1cccnc1		1.29
C=C1/C(=C\C=C2/CCC[C@]3(C)[C@@H]([C@H](C)/C=C/[C@@H](O)C4CC4)CC[C@@H]23)C[C@@H](O)C[C@@H]1O		1.24
Cc1ccc(Cl)c(Nc2ccccc2C(=O)O)c1Cl		0.94
CCN1CCN(C(=O)N[C@@H](C(=O)N[C@@H]2C(=O)N3C(C(=O)O)=C(CSc4nnnn4C)CS[C@H]23)c2ccc(O)cc2)C(=O)C1=O		0.89
CN(C)CCOc1ccc(/C(=C(/CCCl)c2ccccc2)c2ccccc2)cc1		0.977
C[C@H]1C[C@H]2[C@@H]3CCC4=CC(=O)C=C[C@]4(C)[C@@]3(F)[C@@H](O)C[C@]2(C)[C@@]1(O)C(=O)CO		1.39
CNC(=O)[C@H](Cc1c[nH]c2ccccc12)NC(=O)[C@@H](CC(=O)NO)CC(C)C		1.15
CC(=O)Oc1c(C)c(C)c2c(c1C)CCC(C)(CCC[C@H](C)CCC[C@H](C)CCCC(C)C)O2 (some centres undefined)		0.874
Oc1ccc(OCc2ccccc2)cc1		1.17
CCCc1nc(C)c2c(=O)nc(-c3cc(S(=O)(=O)N4CCN(CC)CC4)ccc3OCC)[nH]n12		0.928
COc1cc2nccc(Oc3ccc(NC(=O)C4(C(=O)Nc5ccc(F)cc5)CC4)cc3)c2cc1OC		0.912 and 1.73
O=C(O)/C=C/c1ccc(Cn2ccnc2)cc1		1.17 and 1.12
COCCOC(=O)C1=C(C)NC(C)=C(C(=O)OC/C=C/c2ccccc2)C1c1cccc([N+](=O)[O-])c1 (centres undefined)		0.864
CCOc1nc2cccc(C(=O)O)c2n1Cc1ccc(-c2ccccc2-c2noc(=O)[nH]2)cc1		1.09
COc1cc(O)c(C(=O)Nc2nc(C(=O)NCCN(C(C)C)C(C)C)cs2)cc1OC		1.09 and 1.08
CC(C)(Oc1ccc(C(=O)c2ccc(Cl)cc2)cc1)C(=O)O		1.39

Structures above with a COOH group, in the order listed:
Structure (SMILES)	relative cell density (vehicle: Water)	relative cell density (vehicle: DMSO)
O=C(O)c1cn(-c2ccc(F)cc2)c2cc(N3CCNCC3)c(F)cc2c1=O	1.05	
NC(=O)CCC(N)C(=O)O (centres undefined)	0.939	
CC[C@H]1[C@@H](O)[C@@H]2[C@H](CC[C@]3(C)[C@@H]([C@H](C)CCC(=O)O)CC[C@@H]23)[C@@]2(C)CC[C@@H](O)C[C@@H]12		0.969
CNC1CCCN(c2c(F)cc3c(=O)c(C(=O)O)cn(C4CC4)c3c2OC)C1 (centres undefined)		1.16
C[C@@H](O)[C@H]1C(=O)N2C(C(=O)O)=C([C@H]3CCCO3)S[C@H]12		0.96
CC(C)c1c(C(=O)Nc2ccccc2)c(-c2ccccc2)c(-c2ccc(F)cc2)n1CC[C@@H](O)C[C@@H](O)CC(=O)O		0.307
O=C(O)CCCCCCCC(=O)O		1.31
Cc1ccc(C(=O)c2ccc(CC(=O)O)n2C)cc1		0.742
O=C(O)c1cc(-c2ccccc2)nc2ccccc12		0.675
CCOC(=O)[C@H](CCc1ccccc1)N[C@H]1CS[C@H](c2cccs2)CN(CC(=O)O)C1=O		0.869
C[C@H](CCC(=O)O)[C@H]1CC[C@H]2[C@@H]3[C@H](O)C[C@@H]4C[C@H](O)CC[C@]4(C)[C@H]3CC[C@]12C		1.29
CC(/C=C1\SC(=S)N(CC(=O)O)C1=O)=C\c1ccccc1	0.833	
Cc1nc(=O)c2cc(CN(C)c3ccc(C(=O)N[C@@H](CCC(=O)O)C(=O)O)s3)ccc2[nH]1		1.4
COc1ccc([C@]2(C#N)CC[C@@H](C(=O)O)CC2)cc1OC1CCCC1		1.32
Cc1ccc(Cl)c(Nc2ccccc2C(=O)O)c1Cl		0.94
CCN1CCN(C(=O)N[C@@H](C(=O)N[C@@H]2C(=O)N3C(C(=O)O)=C(CSc4nnnn4C)CS[C@H]23)c2ccc(O)cc2)C(=O)C1=O		0.89
O=C(O)/C=C/c1ccc(Cn2ccnc2)cc1		1.17 and 1.12
CCOc1nc2cccc(C(=O)O)c2n1Cc1ccc(-c2ccccc2-c2noc(=O)[nH]2)cc1		1.09
CC(C)(Oc1ccc(C(=O)c2ccc(Cl)cc2)cc1)C(=O)O		1.39

— the supplement of paper PMC9226226
